{
  "source": "the supplement of paper PMC5355238",
  "note": "Structures can show the parent of a compound that is named as a salt. The list shows a part of the results. Most values lie at the level of the controls, where differences are scatter.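 Using flow cytometry, the assay measures the median γH2AX antibody signal in S-phase Reh cells (a human leukemia line). Each score is the number of standard deviations from the median difference of paired plate sets. Candidate hits scored above 2.5; compounds scoring below -2 lowered MK1775-induced damage.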",
  "data": [
    {"system": "Reh", "experiment": "Z' of S-phase gammaH2AX difference (drug + MK1775 minus drug alone) (Z-score); higher = stronger synergistic S-phase DNA damage with MK1775", "settings": "MK1775 concentration 400 nM; first compound 10 µM; 4 h", "values": [
      {"compound": "COc1ccc2c(c1O)-c1cccc3c1[C@@H](C2)N(C)CC3", "note": "[R(-)-Apocodeine hydrochloride] + C=CCn1c(=O)c2cnc(Nc3ccc(N4CCN(C)CC4)cc3)nc2n1-c1cccc(C(C)(C)O)n1 [MK1775]", "Z' of S-phase gammaH2AX difference (Z-score)": "inactive: 0.367"},
      {"compound": "C[N+]1(C)[C@@H]2CC(OC(=O)[C@H](CO)c3ccccc3)C[C@H]1[C@@H]1O[C@@H]12", "note": "(single isomer, unassigned; (-)) [(-)-Scopolamine methyl nitrate] + C=CCn1c(=O)c2cnc(Nc3ccc(N4CCN(C)CC4)cc3)nc2n1-c1cccc(C(C)(C)O)n1 [MK1775]", "Z' of S-phase gammaH2AX difference (Z-score)": "inactive: 0.393"},
      {"compound": "NC(CCP(=O)(O)O)C(=O)O", "note": "(stereo not drawn) [(?)-2-Amino-4-phosphonobutyric acid] + C=CCn1c(=O)c2cnc(Nc3ccc(N4CCN(C)CC4)cc3)nc2n1-c1cccc(C(C)(C)O)n1 [MK1775]", "Z' of S-phase gammaH2AX difference (Z-score)": "inactive: -0.317"},
      {"compound": "NC(Cc1cc(O)c(O)cc1O)C(=O)O", "note": "(racemic) [6-Hydroxy-DL-DOPA] + C=CCn1c(=O)c2cnc(Nc3ccc(N4CCN(C)CC4)cc3)nc2n1-c1cccc(C(C)(C)O)n1 [MK1775]", "Z' of S-phase gammaH2AX difference (Z-score)": "inactive: -0.785"},
      {"compound": "COc1cc(C(O)CN)ccc1O", "note": "(stereo not drawn) [(?)-Normetanephrine hydrochloride] + C=CCn1c(=O)c2cnc(Nc3ccc(N4CCN(C)CC4)cc3)nc2n1-c1cccc(C(C)(C)O)n1 [MK1775]", "Z' of S-phase gammaH2AX difference (Z-score)": "inactive: 0.771"},
      {"compound": "O=c1[nH]oc2c1CCNC2", "note": "[THIP hydrochloride] + C=CCn1c(=O)c2cnc(Nc3ccc(N4CCN(C)CC4)cc3)nc2n1-c1cccc(C(C)(C)O)n1 [MK1775]", "Z' of S-phase gammaH2AX difference (Z-score)": "inactive: -0.341"},
      {"compound": "O=C(CCCN1CCC2(CC1)C(=O)NCN2c1ccccc1)c1ccc(F)cc1", "note": "[Spiperone hydrochloride] + C=CCn1c(=O)c2cnc(Nc3ccc(N4CCN(C)CC4)cc3)nc2n1-c1cccc(C(C)(C)O)n1 [MK1775]", "Z' of S-phase gammaH2AX difference (Z-score)": "inactive: -0.0168"},
      {"compound": "CC(C)Oc1cccnc1N(C)C1CCN(Cc2ccccc2)CC1", "note": "+ C=CCn1c(=O)c2cnc(Nc3ccc(N4CCN(C)CC4)cc3)nc2n1-c1cccc(C(C)(C)O)n1 [MK1775]", "Z' of S-phase gammaH2AX difference (Z-score)": "inactive: -1.88"},
      {"compound": "C[C@@H]1O[C@H](C[N+](C)(C)C)CS1", "note": "[OXA-22 iodide] + C=CCn1c(=O)c2cnc(Nc3ccc(N4CCN(C)CC4)cc3)nc2n1-c1cccc(C(C)(C)O)n1 [MK1775]", "Z' of S-phase gammaH2AX difference (Z-score)": "inactive: -0.287"},
      {"compound": "NCC1(CC(=O)O)CCCCC1", "note": "[Gabapentin] + C=CCn1c(=O)c2cnc(Nc3ccc(N4CCN(C)CC4)cc3)nc2n1-c1cccc(C(C)(C)O)n1 [MK1775]", "Z' of S-phase gammaH2AX difference (Z-score)": "inactive: 0.255"},
      {"compound": "CN1C2CCC1CC(OC(c1ccccc1)c1ccc(Cl)cc1)C2", "note": "(stereo not drawn) [4'-Chloro-3-alpha-(diphenylmethoxy)tropane hydrochloride] + C=CCn1c(=O)c2cnc(Nc3ccc(N4CCN(C)CC4)cc3)nc2n1-c1cccc(C(C)(C)O)n1 [MK1775]", "Z' of S-phase gammaH2AX difference (Z-score)": "inactive: 0.929"},
      {"compound": "CCCn1c(=O)c2[nH]c(C3CCCC3)nc2n(CCCOC(=O)c2ccc(S(=O)(=O)F)cc2)c1=O", "note": "+ C=CCn1c(=O)c2cnc(Nc3ccc(N4CCN(C)CC4)cc3)nc2n1-c1cccc(C(C)(C)O)n1 [MK1775]", "Z' of S-phase gammaH2AX difference (Z-score)": "inactive: 2.31"},
      {"compound": "CC(O)(CS(=O)(=O)c1ccc(F)cc1)C(=O)Nc1ccc(C#N)c(C(F)(F)F)c1", "note": "(stereo not drawn) [Bicalutamide (Casodex)] + C=CCn1c(=O)c2cnc(Nc3ccc(N4CCN(C)CC4)cc3)nc2n1-c1cccc(C(C)(C)O)n1 [MK1775]", "Z' of S-phase gammaH2AX difference (Z-score)": "inactive: 0.409"},
      {"compound": "CCCCCCC(C)(C)c1ccc([C@@H]2C[C@H](O)CC[C@H]2CCCO)c(O)c1", "note": "+ C=CCn1c(=O)c2cnc(Nc3ccc(N4CCN(C)CC4)cc3)nc2n1-c1cccc(C(C)(C)O)n1 [MK1775]", "Z' of S-phase gammaH2AX difference (Z-score)": "inactive: 0.324"},
      {"compound": "CCCN1CCC[C@@H]2Cc3n[nH]cc3C[C@H]21", "note": "[(-)-Quinpirole hydrochloride] + C=CCn1c(=O)c2cnc(Nc3ccc(N4CCN(C)CC4)cc3)nc2n1-c1cccc(C(C)(C)O)n1 [MK1775]", "Z' of S-phase gammaH2AX difference (Z-score)": "inactive: -0.432"},
      {"compound": "Cc1nc(-c2ccc(-c3ccc(C(=O)N4CCc5cc6c(cc54)C4(CCN(C)CC4)CO6)cc3)c(C)c2)no1", "note": "+ C=CCn1c(=O)c2cnc(Nc3ccc(N4CCN(C)CC4)cc3)nc2n1-c1cccc(C(C)(C)O)n1 [MK1775]", "Z' of S-phase gammaH2AX difference (Z-score)": "inactive: -0.908"},
      {"compound": "CC(C)c1cccc(C(C)C)c1O", "note": "[Propofol] + C=CCn1c(=O)c2cnc(Nc3ccc(N4CCN(C)CC4)cc3)nc2n1-c1cccc(C(C)(C)O)n1 [MK1775]", "Z' of S-phase gammaH2AX difference (Z-score)": "inactive: 1.02"},
      {"compound": "O=C(O)CC[N+](=O)[O-]", "note": "[3-Nitropropionic acid] + C=CCn1c(=O)c2cnc(Nc3ccc(N4CCN(C)CC4)cc3)nc2n1-c1cccc(C(C)(C)O)n1 [MK1775]", "Z' of S-phase gammaH2AX difference (Z-score)": "inactive: 0.514"},
      {"compound": "Oc1ccc2c3c1O[C@H]1[C@@H](O)CC[C@@]4(O)[C@@H](C2)N(CC2CCC2)CC[C@]314", "note": "[Nalbuphine hydrochloride] + C=CCn1c(=O)c2cnc(Nc3ccc(N4CCN(C)CC4)cc3)nc2n1-c1cccc(C(C)(C)O)n1 [MK1775]", "Z' of S-phase gammaH2AX difference (Z-score)": "inactive: 0.393"},
      {"compound": "OCc1cnc[nH]1", "note": "[4-Imidazolemethanol hydrochloride] + C=CCn1c(=O)c2cnc(Nc3ccc(N4CCN(C)CC4)cc3)nc2n1-c1cccc(C(C)(C)O)n1 [MK1775]", "Z' of S-phase gammaH2AX difference (Z-score)": "inactive: -0.245"},
      {"compound": "CN1C[C@H](CNC(=O)OCc2ccccc2)C[C@@H]2c3cccc4c3c(cn4C)C[C@H]21", "note": "[Metergoline] + C=CCn1c(=O)c2cnc(Nc3ccc(N4CCN(C)CC4)cc3)nc2n1-c1cccc(C(C)(C)O)n1 [MK1775]", "Z' of S-phase gammaH2AX difference (Z-score)": "inactive: 1.14"},
      {"compound": "N#CC(C#N)=Cc1cc(O)c(O)c(O)c1", "note": "[Tyrphostin 25] + C=CCn1c(=O)c2cnc(Nc3ccc(N4CCN(C)CC4)cc3)nc2n1-c1cccc(C(C)(C)O)n1 [MK1775]", "Z' of S-phase gammaH2AX difference (Z-score)": "inactive: 0.822"},
      {"compound": "CC(C)[C@@]1(NC(=O)[C@@H]2C=C3c4cccc5[nH]cc(c45)C[C@H]3N(C)C2)O[C@@]2(O)[C@@H]3CCCN3C(=O)[C@H](Cc3ccccc3)N2C1=O", "note": "[Ergocristine] + C=CCn1c(=O)c2cnc(Nc3ccc(N4CCN(C)CC4)cc3)nc2n1-c1cccc(C(C)(C)O)n1 [MK1775]", "Z' of S-phase gammaH2AX difference (Z-score)": "inactive: -0.386"}
    ]}
  ]
}
